Here are results for 1 molecule from article PMC10723533.

This assay addresses T1, Paa1-L-YFP (S. pombe) (UniProt Q9UT08).
T1 sequence: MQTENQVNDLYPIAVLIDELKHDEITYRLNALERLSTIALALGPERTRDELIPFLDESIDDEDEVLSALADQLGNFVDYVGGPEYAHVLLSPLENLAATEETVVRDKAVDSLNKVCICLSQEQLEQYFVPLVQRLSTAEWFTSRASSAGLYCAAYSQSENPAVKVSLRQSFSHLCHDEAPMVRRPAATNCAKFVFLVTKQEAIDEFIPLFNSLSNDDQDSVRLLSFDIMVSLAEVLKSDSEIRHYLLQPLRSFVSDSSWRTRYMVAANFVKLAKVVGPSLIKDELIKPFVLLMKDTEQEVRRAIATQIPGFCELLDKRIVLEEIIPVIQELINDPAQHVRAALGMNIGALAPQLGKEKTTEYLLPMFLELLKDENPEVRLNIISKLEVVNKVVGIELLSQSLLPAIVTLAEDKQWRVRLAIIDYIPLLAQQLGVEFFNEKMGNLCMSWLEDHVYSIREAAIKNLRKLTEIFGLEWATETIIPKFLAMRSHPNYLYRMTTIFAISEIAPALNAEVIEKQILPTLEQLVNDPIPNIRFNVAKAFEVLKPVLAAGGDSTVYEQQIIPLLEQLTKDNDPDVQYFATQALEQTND
In words: co-IP; extracts of cells expressing paa1:L:YFP and trm112:L:HA, nitrogen-rich or nitrogen-depleted media, immunoprecipitated with anti-GFP beads, probed with anti-GFP and anti-HA.

No constants are given. Whether binding was seen depends on the method and setting. In cells and extracts the contact can be indirect. Some binding calls cover weakened binding; strength is not graded here. Tags and fused reporters may be left off the sequences shown.

B1: Trm112-L-HA (protein, UniProt Q09723 1-126)
chain: MKLLTANFLNCSNKKCTSSPEAFPLDVVDAKLAIQQLELKPEFLIGIMPRIDWNALLKTTRQLGNYSLPDEKPDLVDDSDEVLLKSLHNVLLETEITEGKMVCGNCGHVYPIFEGIPNMLLSESEI
For B1, the binding result is “binds”.
